## Primary screen of a compound library

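Whole-cell assay for inhibitors of Mycobacterium tuberculosis growth, labelled Cornell in the record; the read-out is not stated. The concentration is filed as 10 mM, unlikely as a test dose, so the dose is not known. The record gives no direction; compounds strong in two other growth screens of this library score well above the rest, so higher reads as stronger inhibition. About 53,000 compounds were tested under these conditions; 1.7% (about 900) showed 50% or more at least once.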

The filed quantity is “Percent Effect” (%). The controls that fix the scale are not given in the record; negative values are as filed. This is an unselected part of the compounds tested.

structure	Percent Effect
[H][C@]12CC[C@]([H])(CN(Cc3cscn3)C1)N(C(=O)CNC(N)=O)C2	-59.92
Cc1cccc(OCCC(=O)N(C)CCC#N)c1C	3.563
CCCN(Cc1nc(-c2ccoc2)oc1C)CC1CCCO1 (stereo unspecified)	27.78
COc1ccc(CC(=O)N2CCc3nc(C(=O)N(C)C)sc3CC2)cc1	20.94
O=C(c1nnn(-c2ccccc2)n1)N(CCO)CCO	2.438
CNC(=O)c1sc(C2CCCC2)nc1C	-17.88
CCC(Nc1ccc(CCN2CCCCC2)cc1)C(N)=O (stereo unspecified)	-27.95
COCCNC(=O)c1cc(OC)ccc1Br	15.87
Cc1ncsc1C(=O)NCCSCCCO	-5.127
Cc1nc(C)c(CC(=O)NCc2cccnc2OC2CCCC2)c(=O)[nH]1	-0.5973
COc1cccc2c(=O)n(Cc3nc(C)cc(O)n3)cnc12	-30.72
O=C(O)C(F)(F)F.O=C(c1cscn1)N1CCC2(CCN(Cc3cccs3)CC2)C1	11.32
CC(C)Cc1ncc2c(n1)CN(c1cc(N)nc(N)n1)C2	22.36
CCS(=O)(=O)Nc1ccc(C(=O)NCCCN2CCCC2)cc1	-15.51
CN(Cc1cnn(C)c1)C(=O)c1ccc(Cl)c(N2CCNC2=O)c1	-9.415
[H][C@@]12CN(C(=O)c3cscn3)C[C@@]1([H])N(CC1CCCC1)C(=O)CO2	0.9572
CN(C)Cc1ccnc(C2CN(Cc3nccs3)CCO2)n1 (stereo unspecified)	8.068
Cc1cc(CN[C@H](C(N)=O)[C@@H](C)O)c(C)s1	-17.32
CCN1CC2(CCC1=O)CCN(Cc1cccc(C#N)c1)CC2	3.934
COc1c(CNCC(O)COc2ccc3c(c2)OCO3)c(C)nn1C (stereo unspecified)	-9.64
O=C(O)C(F)(F)F.O=C(O)C(F)(F)F.[H][C@@]12CN(Cc3cccs3)C[C@]1([H])C(=O)N(CCN1CCCC1)C2	-35.2
COc1ccc2nc(NC(=O)c3c(C(=O)O)cnn3C)sc2c1	16.66
Cc1c(C(C)NC2CSCCSC2)cnn1-c1ccc(F)cc1F (stereo unspecified)	27.09
COCCN(C)C(=O)Nc1ccc2c(ccn2CCOC)c1	-13.73
Cc1ccccc1C1CCN(CCn2cc(-c3nccn3C)nn2)C1 (stereo unspecified)	40.64
CC1CCN(C(=O)C2CCN(c3ccc(Cl)cc3C#N)CC2)CC1	32.45
Fc1ccc(-c2c[nH]c([C@@H]3COCCN3)n2)cc1	1.974
CCS(=O)(=O)Nc1ccc2c(c1)C1(CCOCC1)CN2C.O=C(O)C(F)(F)F	16.18
CC[C@@H](CO)Nc1nccc(-c2c[nH]c3cc(C(=O)OC)ccc23)n1	-7.18
O=C(O)C(F)(F)F.O=C(O)C(F)(F)F.[H][C@@]12CN(CC3CC3)C[C@]1([H])OCCN2Cc1c(C)noc1C	5.55
NC(=O)CN(Cc1ncc(-c2ccc(Cl)cc2)o1)C1CCCC1	10.37
Cc1ccsc1C(Cn1ccnc1-c1ccccc1C(=O)O)N(C)C (stereo unspecified)	-16.81
CC1CCCN(Cc2c(C3CCOCC3)[nH]c3ncccc23)C1 (stereo unspecified)	-16.84
CCN(CCn1cccn1)Cc1nc(-c2cc(F)ccc2F)oc1C	14.84
Cc1ccc(CN2CCN(C3CCC3)CC2CCO)o1 (stereo unspecified)	1.118
CCN(C(=O)NCc1ncc(C)c(OC)c1C)C(C)c1cccnc1 (stereo unspecified)	13.43
Cn1nc(C(C)(C)C)cc1NC(=O)Cn1ccnc1	-29.07
Cn1cnc(S(=O)(=O)N2CCN(CC3CC3)c3ncccc3C2)c1.O=C(O)C(F)(F)F.O=C(O)C(F)(F)F	29.54
Cc1nn(C(C)C)c(C)c1NC(=O)c1ccncc1	11.34
O=C(O)C(F)(F)F.O=S(=O)(C1CC1)N1CCC[C@]2(C[C@@H](Oc3ccccn3)CO2)C1	-21
CCNC(=O)NC(=O)CNC(C)(C)c1ccc2c(c1)OCO2	-15.5
Cc1ncsc1CCC(=O)NC1CCN(c2ncccc2C#N)CC1	-53.67
O=C(O)C(F)(F)F.O=C(O)C(F)(F)F.[H][C@@]12CCN(C3CCOCC3)C[C@]1([H])[C@@H](CNC(=O)c1ccncc1)OC2	13.81
CCSc1cc(C(=O)NCc2ccc(C(=O)NC)cc2)ccn1	11.06
CC(C)(C)n1cc(CNc2ccc(CNS(C)(=O)=O)cc2)cn1	-29.95
Cc1ccc(C(C)(C)CNC(=O)NC(C)Cn2cncn2)cc1 (stereo unspecified)	-13.83
O=S(=O)(NCc1ccc(S(=O)(=O)N2CCCC2)s1)c1ccc(F)cc1Cl	17.65
O=C(C1CCCCC1)N1CCCC([C@@H]2C[C@H](C(F)F)n3ncnc3N2)C1 (stereo partly specified)	15.26
CNC(=O)c1cccc(NC(=O)NCc2ccc(SC)cc2)c1C	14.71
CCNC(=O)NC1CN(CC(=O)NCc2ccccc2C)C[C@@H]1OC (stereo partly specified)	12.08
Cc1noc(NC(=O)c2ccc(Br)cc2)n1	106.9
O=C1CC(NS(=O)(=O)c2ccc3ccccc3c2)CN1 (stereo unspecified)	26.63
O=C(O)C(F)(F)F.O=C(O)C(F)(F)F.[H][C@@]12C[C@H](C(=O)NCC3CC3)N(C)[C@]1([H])CN(Cc1ccc(C)o1)C2	-9.568
CCc1noc(C(C)N(C)CC(=O)Nc2ccccc2Cl)n1 (stereo unspecified)	30.65
Cc1ccc(-c2nnc(SCC(=O)O)n2-c2ccccc2)cc1	-52.8
CCN(CC1COc2ccccc2O1)C(=O)C1=NN(C)C(=O)CC1 (stereo unspecified)	26.85
CC(=O)Nc1ccc(-c2ccccc2NC(=O)CN)cc1	-51.66
O=C(c1nsc(Cl)c1Cl)N1CCc2nc3sccc3c(=O)n2CC1	4.246
COc1cc(OC)cc(-c2noc(CN)n2)c1	-71.7
O=C(c1cc(=O)n(-c2ccccc2)[nH]1)N1CCCC(c2ccn[nH]2)C1 (stereo unspecified)	-22.4
CC(=O)N1CCCC1c1cncc(Oc2ccc(F)cc2)n1 (stereo unspecified)	-7.462
Cn1ncc2ccc(C3CCCN(Cc4cccs4)C3)nc21 (stereo unspecified)	-1.871
Cc1nn(-c2ncnc3[nH]cnc23)c2c1C(CC(C)C)CC(=O)N2 (stereo unspecified)	45.31
Cl.Cl.O[C@@H]1C[C@@](CNCc2ccc(F)cc2)(COc2cccnc2)C[C@@H]1O	-2.687

Repeated from the top, 5 entries:

{"structure": "[H][C@]12CC[C@]([H])(CN(Cc3cscn3)C1)N(C(=O)CNC(N)=O)C2", "Percent Effect": -59.92}
{"structure": "Cc1cccc(OCCC(=O)N(C)CCC#N)c1C", "Percent Effect": 3.563}
{"structure": "CCCN(Cc1nc(-c2ccoc2)oc1C)CC1CCCO1", "stereo": "stereo unspecified", "Percent Effect": 27.78}
{"structure": "COc1ccc(CC(=O)N2CCc3nc(C(=O)N(C)C)sc3CC2)cc1", "Percent Effect": 20.94}
{"structure": "O=C(c1nnn(-c2ccccc2)n1)N(CCO)CCO", "Percent Effect": 2.438}

Source: ChEMBL document CHEMBL3988442, “University of Dundee, Small-Polar-MMV Screening Library” (2021).